Experimental data as given in patent US6258780A (priority 1997, dated 2001).

System: hippocampal slices, CA1 area
Assay type: cell-based

Compound: CN1[C@@H]2CC[C@H]1C[C@@H](OC(=O)C(CO)c1ccccc1)C2 (stereo partly shown) [atropine]
- excitation response under co-exposure with physostigmine: absence of excitation response
